We go through 18 molecules from article PMC10163288.

The chains are these.
B1: il10ra_site1_normal_mot_HHH_b2_00984_000000042_0001_1_20_H_._ems_p1-15H-GBL-16H-GABBL-16H_0120_0001_0001_0001_0001_0000500019_0000002_0 (protein)
chain: SSSSSDVARLAAEAARLAFRKGDQEALRELWELIQAYARGEQPEEEVEEIVEEILERLRSSSSSS
B2: il10ra_site1_sap_8_mot_HHH_b1_07768_000000240_0001_18_35_H_._HHH_b1_06381_af2_0001_0000300007_0000002_0_0001 (protein)
chain: SSSSSEDNEELFELSKRAAELASEGNPEEARRLLEEAEELAEEAGNMLFLWQIRFLLKRISSSSS
B3: il10ra_site1_sap_13_mot_HHH_b2_07596_000000080_0001_23_39_H_._HHH_b1_03720_0001_0000200022_0000001_0_0001_af2pred_dldesign_0_af2pred (protein)
chain: SSSSSDPALRARVEALLEEARKLKDPEKAAEVLREASRLAWELGDSELFERIKEVANELLSSSSS
B4: il10ra_site1_sap_20_mot_HHH_b1_02997_000000220_0001_39_52_H_._HHH_b1_01700_0001_0000400036_0000002_0_0001 (protein)
chain: SSSSDEARRELFELSRRAAEALANGNPEEARKILEEAEELAEELGDRVVLFSIRHLLKAVNSSSS
B5: il10ra_site1_normal_mot_HHH_b1_00456_000000263_0001_1_17_H_._ems_3hM_3122_af2_0001_0000100004_0000001_0_af2pred_0001 (protein)
chain: SSSAAEVWHILVRAYTLALRLNDEELREEVKEVAQEVTELLLEGDEEEARRLAEELLERVEKKSS
B6: il10ra_site1_sap_20_mot_HHH_b1_06256_000000091_0001_42_58_H_._HHH_b1_00504_0001_0000100004_0000002_0_0001 (protein)
chain: SSSSSEEERELEELIERAKELLERGNPQEAIEVLARAVRLAFELGDPEALHEIWELVERQKSSSS
B7: il10ra_site1_normal_mot_8756ee2cf497b5429c717dfc0c0bcfd6_0001_000000186_0001_1_13_H_._HHH_b2_04339_af2_0001_0000100002_0000002_0_af2pred_0001 (protein)
chain: SSSSSDLEELVKLLRRIIELLADGNPEEAEELAEEALKLAEELNNEVARAILEFLRERAGSSSSS
B8: il10ra_site1_normal_mot_HHH_b1_05860_000000142_0001_1_19_H_._HHH_b2_03301_0001_0000100010_0000002_0_af2pred_0001 (protein)
chain: SSSSSERERVVKLLREAAELLRKGNPEEAREVLEEARELIEEAGNEVFEFILRLLERDLESSSSS
B9: il10ra_site1_sap_28_mot_HHH_b2_00441_000000147_0001_1_18_H_._HHH_b2_05319_0001_0000200013_0000001_0_0001 (protein)
chain: TVEHVLRKFAEAAVKGDESAQRILKVIVELAKTDPQYRQALERLIEILEELGDPELAEELEELLK
B10: il10ra_site1_normal_mot_HHH_b2_04912_000000028_0001_1_20_H_._HHH_b2_01396_0001_0000200033_0000001_0 (protein)
chain: SSSSDHEEVLELVLEALRLALRGDPEEAEKVLEEVLRLAEELGDEKLVEIIRDLLEALRDGSSSS
B11: il10ra_site1_normal_mot_7d538683ae38ff56261eb02f12605454_0001_af2_000000062_0001_54_65_H_._HHH_b1_06236_0001_0000100010_0000001_0 (protein)
chain: SSSSSEEEEEAEELLIEVAELFISGNPEEARRLLEEVRELVEKIGDPHLRAAVRIYEDAIKSSSS
B12: il10ra_site1_normal_mot_HHH_b2_06857_af2_000000179_0001_42_54_H_._HHH_b1_07795_af2_0001_0000100003_0000001_0_af2pred_dldesign_0_af2pred (protein)
chain: SSSSSDIEKVVKLIKEMAELASEGKKEEFEKTYNEALALAKKLGDEILVYTIEYLKERGLSSSSS
B13: il10ra_site1_sap_28_mot_HHH_b2_06311_000000217_0001_1_16_H_._HHH_b2_07909_af2_0001_0000600027_0000001_0_0001 (protein)
chain: SSSSSDAHELFELSREAAELARTDPEKAEEVLEEAIEIAERAGNQNFLVNLRYLLRRIENSSSSS
B14: il10ra_site1_sap_24_mot_HHH_b1_00999_000000080_0001_41_55_H_._HHH_b1_08417_0001_0000300009_0000002_0_0001_af2pred_0001 (protein)
chain: SSSDDEEELRLAAEIVARLILEFNLTQEQAVELLRVAYELLRRGVSEEEIEEILKEVAEELGSSS
B15: il10ra_site1_sap_25_mot_HHH_b1_07286_af2_000000054_0001_1_19_H_._HHH_b2_06366_0001_0000400028_0000001_0_0001_af2pred_0001 (protein)
chain: SSSSSSEEVREILRLLREAHEIDDPEEREEVLEEAQRLAEEAGNELLLFVIEYLLEIVRQSSSSS
B16: il10ra_site1_normal_mot_HHH_b1_00999_000000080_0001_41_55_H_._HHH_b1_08027_af2_0001_0000500028_0000003_0 (protein)
chain: SSSSSEEELEELEKQVEKLIEEGNLEEALRVIAEAVQLAMELGDQETLQELWRLVQRIGRLSSSS
B17: il10ra_site1_normal_mot_HHH_b2_04912_000000028_0001_1_20_H_._HHH_b2_06521_af2_0001_0000400041_0000001_0 (protein)
chain: SSSSSDEQEELLELLIRAFRLALRGNPEEARELLEEAEHLAEKLGDERARENVEELLQALSSSSS
B18: il10ra_site1_sap_20_mot_HHH_b2_07579_000000275_0001_1_19_H_._HHH_b2_06655_0001_0000100003_0000001_0_0001 (protein)
chain: SSSDERERVWELLKKALELLARGDKEEAEEVVKEAEEIAEEGGDMVLLVVIRFLLEQIRRQSSSS

Some of the results follow.

In this experiment the target is il10ra, Q13651. Briefly: yeast display titration.
Turning to B1, the “apparent Kd” value is “inactive: no binding seen”. With B2, the “apparent Kd” value is “inactive: no binding seen”. The result for B3 reads “inactive: no binding seen”; that for B4, “inactive: no binding seen”.

B5: the “apparent Kd” value is “inactive: no binding seen”.

As for B6, the “apparent Kd” value was “inactive: no binding seen”.

For the molecule B7, the “apparent Kd” value was “inactive: no binding seen”. Regarding B8, the “apparent Kd” value is “inactive: no binding seen”.

In the case of B9, the “apparent Kd” value was “inactive: no binding seen”. The result for B10 reads “inactive: no binding seen”. As to B11, the “apparent Kd” value is “inactive: no binding seen”.

As to B12, the “apparent Kd” value was “inactive: no binding seen”. With B13, the “apparent Kd” value was “inactive: no binding seen”. Regarding B14, the “apparent Kd” value is “inactive: no binding seen”. Turning to B15, the “apparent Kd” value is “inactive: no binding seen”.

As for B16, the “apparent Kd” value is “inactive: no binding seen”. For B17, the “apparent Kd” value is “inactive: no binding seen”. As to B18, the “apparent Kd” value is “inactive: no binding seen”.
